Source: patent US20200291123A1 (PB IMMUNE THERAPEUTICS, published 2020)
Results are given in words; binding and its absence hold for the method and conditions named. Some entries that bind do so weakly or less than the wild type.

Protein sequences, listed by entry. Tags and fused reporters are not part of them. Lines headed by an entry give the natural chain unless they say otherwise; changes in a name come on top. Chains listed by the source or under a name are the forms on record and can include a tag or linker. Residues count along the entry.
UniProt P25942: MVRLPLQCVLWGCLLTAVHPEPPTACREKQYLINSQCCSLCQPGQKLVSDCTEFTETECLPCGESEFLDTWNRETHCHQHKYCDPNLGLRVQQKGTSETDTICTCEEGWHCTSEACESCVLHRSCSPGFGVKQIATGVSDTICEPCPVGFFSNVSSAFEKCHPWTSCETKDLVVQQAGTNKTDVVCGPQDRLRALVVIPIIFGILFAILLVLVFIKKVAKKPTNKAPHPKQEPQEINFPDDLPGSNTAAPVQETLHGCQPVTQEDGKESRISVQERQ
human CD40 expressed on human B cell lines (Raji, Ramos): residues 21-277 of P25942
human CD40 antigen: residues 21-193 of P25942
Monkey CD40 (Rhesus monkey) (F6SNI1, form named): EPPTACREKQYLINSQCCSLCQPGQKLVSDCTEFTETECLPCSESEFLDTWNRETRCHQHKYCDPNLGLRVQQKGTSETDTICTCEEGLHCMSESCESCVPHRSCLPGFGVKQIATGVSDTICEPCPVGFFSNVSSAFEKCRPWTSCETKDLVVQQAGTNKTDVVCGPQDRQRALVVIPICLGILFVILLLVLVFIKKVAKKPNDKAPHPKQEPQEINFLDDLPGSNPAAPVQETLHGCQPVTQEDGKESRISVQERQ

Experiments:
[1] = target: human CD40 expressed on human B cell lines (Raji, Ramos) (human) (UniProt P25942); assay: western blot of Raji cell lysate
[2] = target: human CD40 expressed on human B cell lines (Raji, Ramos) (human) (UniProt P25942); assay: flow cytometry on Raji cells, RM8G-1 at 0.5 µg/ml
[3] = target: Monkey CD40 (Rhesus monkey) (Rhesus monkey) (UniProt F6SNI1); assay: flow cytometry on Monkey CD40-CHO cells (figure legend)
[4] = target: human CD40 antigen (human) (UniProt P25942); assay: ELISA on coated human CD40 antigen (figure legend)
[5] = target: human CD40 expressed on human B cell lines (Raji, Ramos) (human) (UniProt P25942); assay: flow cytometry on Raji cells (figure legend)
[6] = target: T1, … region of human CD40 (peptide microarray) (human); assay: peptide microarray, RM8G-1 at 1, 10 and 100 µg/ml
T1 sequence (peptide): ECLPCGESEF

[7] = target: Monkey CD40 (Rhesus monkey) (Rhesus monkey) (UniProt F6SNI1); assay: flow cytometry on Monkey CD40-CHO cells, RM8G-1 at 0.5 µg/ml
[8] = target: human CD40 expressed on human B cell lines (Raji, Ramos) (human) (UniProt P25942); assay: western blot of Raji cell lysate (figure legend)
[9] = target: human CD40 antigen (human) (UniProt P25942); assay: ELISA, 100 ng human CD40 antigen coated per well, antibody 50 to 0.000282 µg/ml

Measured: binding

B1: anti-CD40 antibody RM8G-1 (antibody, V domains shown)
VH: LVQLKESGPGLVAPSQSLSITCTVSGFSLTDYGVGWIRQPPGKDLEWLGVMWGGGRTYYNAPLKSRLSISKDNSKSQVFLKMNSLQTDDTAMYYCVKTGQDYAVDYWGQGTSVTVSS
VL: DIVLTQSPASLAVSLGQRATISCRASKSVSTSAYSYMHWYQQKPGQPPKLLIYLASNLESGVPARFSGSGSGTDFTLNIHPVEEEDAATYYCQHSWDLPYTFGGGTKLEIK
notes: Mouse monoclonal antibody from hybridoma RM8G1 (KCLRF-BP-00336); also called RM RM8G-1; anti-CD40 RM8G-1
binds: all assays above
